Read-outs that look alike come from different tables or passages of the source.
Tests used:
healthy adults [1] = assay: Experiment 2: Neurocognitive Function Change (NCFC) index; type: in vivo, human
healthy elderly subjects [2] = assay: Experiment 8: resting and task-related EEG and ERP in elderly; type: in vivo, human
healthy adults [3] = test system: healthy adults
Experimental: (§1) Each drug session involved a baseline recording before drug administration. This was followed by four post-drug recording intervals, each lasting approximately 40 minutes. The first interval began 0.5 hrs after drug ingestion; the remaining three intervals occurred hourly thereafter. A scientist not otherwise involved in the experiment administered a Breathalyzer test at the beginning of each interval. Subjects also completed the Karolinska and Stanford sleepiness scales at each test period.
EEG was continuously recorded from 28 scalp electrodes using a digitally linked-mastoids reference. EOG was recorded from electrodes placed above and below one eye, and at the other canthi of each eye. Physiological signals were band-pass filtered at 0.01 to 100 Hz and sampled at 256 Hz. Automated artifact detection was followed by application of adaptive eye contaminant removal filters. The data were then visually inspected and data segments containing possible residual artifacts were eliminated from subsequent analyses. To examine the effects of the pharmacological interventions on individual EEG or behavioral variables, univariate repeated measures analyses of variance (ANOVAs) were used to compare data from each of the three treatment conditions with the placebo condition.
For neurophysiological features, average power was extracted from individual spectral bands at individual electrode sites, and then compared across test conditions. Decisions as to which parameters to extract from the spectra were based on the results of prior studies. For the task related EEG, past studies indicate that the frontal midline theta rhythm and the parietal alpha rhythm are sensitive to variations in the attentional demands of tasks, and, in particular, to the increase in difficulty in the working memory tasks employed here. For the EEG recorded under passive resting conditions, past studies indicate that activity in the delta and theta bands at posterior sites, and the alpha rhythm measured over the occipital region, are highly sensitive to variations in alertness and arousal. Each of the individual features was compared between placebo and each drug condition in univariate ANOVAs with repeated measures.

healthy elderly subjects [4] = settings: human, in vivo
healthy adults [5] = assay: Experiment 1: subjective sleepiness ratings (Karolinska Sleepiness Scale); type: in vivo, human; settings: 50 mg diphenhydramine, 200-mg caffeine or 0.88 g/kg ethanol, four post-treatment intervals
Experimental: Each subject participated in […] sessions. The first session was a practice session in which subjects learned to perform the working memory tasks. After training, all subjects participated in 4 sessions, separated by at least one week. […] The four drug sessions were conducted according to a double blind, placebo-controlled, randomized, counterbalanced, crossover design. In each session, subjects consumed two pills (unmarked gelatin capsules) and a mixed drink. […] The pills were given with a 500 cc drink containing either 0.88 g/kg 95% ethanol mixed in fruit juice (adequate to produce an average peak blood alcohol content (BAC) of 0.08), or containing 495 cc of fruit juice with 5 cc of alcohol floated on top to mimic the smell and taste of the treatment drink.
as §1

Subjects with negative index score at nadir (healthy elderly subjects [4]): 11 of the 12
Compound: CN(C)CCOC(c1ccccc1)c1ccccc1 [diphenhydramine]
NCFC index change from pre-medication baseline (healthy adults [1]; 16 subjects, t1-t4): large drop in value
NCFC sub index most affected (healthy adults [1]; in vivo): largest impact on the Neurophysiological Alertness sub index
Memory-evoked shift (healthy elderly subjects [2]; 2.5 hrs after drug ingestion): significantly attenuated
Delay of early frontal positive deflection (P120) relative to placebo (healthy elderly subjects [2]; ITM task, average): 10 ms
Task-related EEG activity in delta, theta and alpha bands relative to placebo (healthy elderly subjects [2]; elderly): increased activity
Direction of significant (p < .05) change in spectral power (vs. placebo): Oz alpha (healthy adults [3]; Resting EEG Eyes Closed): ▾
Direction of significant (p < .05) change in spectral power (vs. placebo): Pz delta (healthy adults [3]; Resting EEG Eyes Closed): ▴
Direction of significant (p < .05) change in spectral power (vs. placebo): Pz theta (healthy adults [3]; Resting EEG Eyes Closed): ▬
Direction of significant (p < .05) change in spectral power (vs. placebo): Oz alpha (healthy adults [3]; Resting EEG Eyes Open): ▬
Direction of significant (p < .05) change in spectral power (vs. placebo): Pz delta (healthy adults [3]; Resting EEG Eyes Open): ▴
Direction of significant (p < .05) change in spectral power (vs. placebo): Pz theta (healthy adults [3]; Resting EEG Eyes Open): ▬
Direction of significant (p < .05) change in spectral power (vs. placebo): Pz alpha (healthy adults [3]; Task EEG High Load): ▬
Direction of significant (p < .05) change in spectral power (vs. placebo): aFz theta (healthy adults [3]; Task EEG High Load): ▾
Direction of significant (p < .05) change in spectral power (vs. placebo): Pz alpha (healthy adults [3]; Task EEG Low Load): ▬
Direction of significant (p < .05) change in spectral power (vs. placebo): aFz theta (healthy adults [3]; Task EEG Low Load): ▬
Subjective sleepiness relative to placebo (healthy adults [5]): significant increase in subjective sleepiness relative to placebo at the 2.5-3 hr and 3.5-4 hr post-treatment intervals

— patent US6947790B2, “Neurocognitive function EEG measurement method and system” (priority 2000, dated 2005)
